From patent US20240352068A1, “VIMENTIN TARGETED PEPTOIDS FOR EARLY DIAGNOSIS AND TREATMENT OF CANCER” (UNIVERSITY OF HOUSTON SYSTEM, priority 2021, published 2024)
For at least one compound, name, drawing or mass did not settle the structure. Numbered stars: 1 amine (or outer) side, 2 acyl side, 3 side chain; on linkers, the order of the positions; unused ones are H or OH. Bridge positions count the residues as written; N and C are the ends. Square brackets hold non-standard residues; d marks the D form. Peptide text beside a SMILES is read from it. I, II: the chains in the order shown. X1 = O=C(c1ccccc1)c1cccc(N(CC(=O)[*:2])[*:1])c1; N(4-BzPh)Gly = O=C(O)CNc1ccc(C(=O)c2ccccc2)cc1; Gly(N-piperonyl) = O=C(O)CNCc1ccc2c(c1)OCO2; Nleu = CC(C)CNCC(=O)O; Nlys = NCCCCNCC(=O)O; Nme = COCCNCC(=O)O

By UniProt entry, the sequences of proteins in these tests, tags left out.
UniProt P08670, whole entry: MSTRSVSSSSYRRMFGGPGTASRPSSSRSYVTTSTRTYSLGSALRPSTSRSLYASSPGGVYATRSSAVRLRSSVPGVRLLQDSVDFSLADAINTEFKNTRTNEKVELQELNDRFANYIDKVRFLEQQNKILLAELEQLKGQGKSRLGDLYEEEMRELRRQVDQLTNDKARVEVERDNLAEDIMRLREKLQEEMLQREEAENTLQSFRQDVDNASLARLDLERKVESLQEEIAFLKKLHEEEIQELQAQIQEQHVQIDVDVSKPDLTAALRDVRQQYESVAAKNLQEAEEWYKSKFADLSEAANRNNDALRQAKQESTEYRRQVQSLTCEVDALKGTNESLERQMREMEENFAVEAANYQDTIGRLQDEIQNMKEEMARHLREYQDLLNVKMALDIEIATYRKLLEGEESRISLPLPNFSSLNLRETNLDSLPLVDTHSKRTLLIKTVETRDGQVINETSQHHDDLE

Target: vimentin (Homo sapiens, UniProt P08670)
Experiment: ELISA-like binding assay to vimentin
Protocol: To identify minimum pharmacophore of JM3A (the most important residues directly needed for protein binding), an alanine/sarcosine scan was done.
Next, Applicant compared binding activity between L2 (D-ala) and JM3ABPD1 by employing ELISA-like binding assay in a concentration between 10 nM to 10 μM.

`COCCN(CC(=O)N[C@@H](CCCCN)C(=O)N[C@H](C)C(=O)NCC(=O)NCCCC[C@H](NC(=O)CNC(=O)[C@@H](C)NC(=O)[C@H](CCCCN)NC(=O)CN(CCOC)C(=O)CN(Cc1ccc2c(c1)OCO2)C(=O)CN(CC(C)C)C(=O)CN(CCCCN)C(=O)CN(CCCCN)C(=O)CN(CC(C)C)C(=O)CNc1cccc(C(=O)c2ccccc2)c1)C(N)=O)C(=O)CN(Cc1ccc2c(c1)OCO2)C(=O)CN(CC(C)C)C(=O)CN(CCCCN)C(=O)CN(CCCCN)C(=O)CN(CC(C)C)C(=O)CNc1ccc(C(=O)c2ccccc2)cc1` [L2 (D-ala)] (I: H-[X1][Nleu][Nlys][Nlys][Nleu][Gly(N-piperonyl)][Nme]K[dA]GK-NH2 / II: H-[N(4-BzPh)Gly][Nleu][Nlys][Nlys][Nleu][Gly(N-piperonyl)][Nme]K[dA]G; amide I:11-II:C; N-terminus and C-terminus assumed) gave a Kd of ~127 nM.
